Results published in publication doi:10.1101/869123.

Biological target: GST-tagged γ-tubulin (UniProt P23258)
Test: pull-down

With “His-tagged CRIPT, bacteria expressed (from UniProt Q9P021 1-101)” as the substance, how does the binding read?
Its binding is “binds”.

These are yes or no findings as the source states them, for the method shown. Binding can be weak; no strength is given.
